Data as given in publication PMC6167049, “Structural and catalytic properties of the peroxygenase P450 enzyme CYP152K6 from Bacillus methanolicus” (Journal of Inorganic Biochemistry, 2018).
Results are given in words; binding and its absence hold for the method and conditions named.

Legend:
[1] = molecular target: CYP152K6 from Bacillus methanolicus MGA3 (Bacillus methanolicus MGA3) (UniProt I3DZK9); assay: SEC; gel-filtration analysis; the methods tell only of a Superdex 200 16/600 column in buffer A (100 mM potassium phosphate pH 8.0, 200 mM KCl); both purified
[2] = molecular target: CYP152K6 from Bacillus methanolicus MGA3 (Bacillus methanolicus MGA3) (UniProt I3DZK9); assay: crystal structure; X-ray, 1.3 Å, space group C2, one monomer per asymmetric unit, tetradecanoic acid bound; both purified

B1: CYP152K6 from Bacillus methanolicus MGA3 (enzyme, UniProt I3DZK9 1-419)
chain: MSNINQMPREEGIDSTWRLMEEGYMYILNRRHSFNSDIFETRLLGKKAICMGGKEAAEIFYDTEKFKRKDAAPNRVVQTLFGKNGVQALDGQTHKHRKEMFMSIMSPDELEKLTDITKKQWEIAVDKWEQMDKVILYEEAKEIMCRTACQWAGVPVQENEVKRLTKNLGAMFESAAAVGLKHWLGRHARNYEEIWIEELIDRVRDGKVNPPENTTLHKFSWYRDLEGNLLDTETAAVEVINILRPIVAIAIFINFIALALHHYPEEKEKLKSGDKKYSQMFVQEVRRFYPFFPFVVALVKKDFTWKGYKFEEGTLTLLDLYGTNHDPEIWKNPDVFSPDRFAKWEGSPFSFIPQGGGDYFMGHRCAGEWVTIEVMKVSLDYLTNRMDYEVPDQDLSFSMASMPSIPHSKVVIKNVKKRI
binding [1]: no binding | binding [2]: no binding
